Experimental data: PubChem BioAssay AID652272 (Drosophila RNAi Screening Center, 2013)
Assay: 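Genes whose knock-down decreases or increases Hedgehog reporter output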 (primary screen). Cells: Drosophila clone 8 (Cl8) cells. Knock-down reagent: long dsRNA against Drosophila genes. Detection: 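Firefly light from a Hedgehog-responsive ptc promoter reporter and Renilla reference light, both read on a plate reader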. Reading the numbers: firefly Hh reporter signal: higher = more ptc reporter light; Renilla reference signal: higher = more Renilla control light. Rule for the call: 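Hit when the z-score averaged over two replicates is under -2 or over +3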. Calls: active = hit: reporter lowered or raised; inactive = not a hit.
The deposit covers about 21,000 reagents; this is a random part of those that have a named target and a result. Of all reagents, 503 (2.4%) are marked active. 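Raw plate light values, not normalised; calls rest on replicate z-scores that were not deposited; hits include reporter decreases as well as increases.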 Entries without a mark were called inactive. The record does not give: the amount of reagent, the time to read-out.

The first 2 records, ahead of the listing:
Paip1 (Poly(A) binding protein interacting protein 1) [DRSC07302] — firefly Hh reporter signal, replicate 1: 1.01e5; firefly Hh reporter signal, replicate 2: 40518; Renilla reference signal, replicate 1: 4330; Renilla reference signal, replicate 2: 1677
jv (javelin) [DRSC08831] — firefly Hh reporter signal, replicate 1: 73770; firefly Hh reporter signal, replicate 2: 1.81e5; Renilla reference signal, replicate 1: 1991; Renilla reference signal, replicate 2: 8087

Results, repeating the preview:
Paip1 (Poly(A) binding protein interacting protein 1) [DRSC07302] — firefly Hh reporter signal, replicate 1: 1.01e5; firefly Hh reporter signal, replicate 2: 40518; Renilla reference signal, replicate 1: 4330; Renilla reference signal, replicate 2: 1677
jv (javelin) [DRSC08831] — firefly Hh reporter signal, replicate 1: 73770; firefly Hh reporter signal, replicate 2: 1.81e5; Renilla reference signal, replicate 1: 1991; Renilla reference signal, replicate 2: 8087
jv (javelin) [DRSC08832] — firefly Hh reporter signal, replicate 1: 1.10e5; firefly Hh reporter signal, replicate 2: 2.24e5; Renilla reference signal, replicate 1: 3094; Renilla reference signal, replicate 2: 9355
CG16852 [DRSC01876] — firefly Hh reporter signal, replicate 1: 1.09e5; firefly Hh reporter signal, replicate 2: 45179; Renilla reference signal, replicate 1: 3170; Renilla reference signal, replicate 2: 3941
TAF1B [DRSC16001] — firefly Hh reporter signal, replicate 1: 1.24e5; firefly Hh reporter signal, replicate 2: 80370; Renilla reference signal, replicate 1: 5805; Renilla reference signal, replicate 2: 3200
CG12560 [DRSC02174] — firefly Hh reporter signal, replicate 1: 1.05e5; firefly Hh reporter signal, replicate 2: 49392; Renilla reference signal, replicate 1: 3093; Renilla reference signal, replicate 2: 5168
Acadvl (Acyl-CoA dehydrogenase very long chain) [DRSC07022] — firefly Hh reporter signal, replicate 1: 1.30e5; firefly Hh reporter signal, replicate 2: 93298; Renilla reference signal, replicate 1: 6097; Renilla reference signal, replicate 2: 4412
CG9173 [DRSC08635] — firefly Hh reporter signal, replicate 1: 83421; firefly Hh reporter signal, replicate 2: 50230; Renilla reference signal, replicate 1: 3251; Renilla reference signal, replicate 2: 3613
CG1161 [DRSC12180] — firefly Hh reporter signal, replicate 1: 39989; firefly Hh reporter signal, replicate 2: 54964; Renilla reference signal, replicate 1: 1772; Renilla reference signal, replicate 2: 1843
CG43191 [DRSC05326] — firefly Hh reporter signal, replicate 1: 91426; firefly Hh reporter signal, replicate 2: 1.84e5; Renilla reference signal, replicate 1: 2885; Renilla reference signal, replicate 2: 8233
Sf3a2 (Splicing factor 3a subunit 2) [DRSC09801] — firefly Hh reporter signal, replicate 1: 78616; firefly Hh reporter signal, replicate 2: 82012; Renilla reference signal, replicate 1: 3816; Renilla reference signal, replicate 2: 3715
Hr38 (Hormone receptor-like in 38) [DRSC03345] — firefly Hh reporter signal, replicate 1: 58565; firefly Hh reporter signal, replicate 2: 27125; Renilla reference signal, replicate 1: 1819; Renilla reference signal, replicate 2: 2773
